These results are taken from paper PMC6946813.

The chains behind the UniProt entries cited, without tags or fusion partners.
UniProt Q12905: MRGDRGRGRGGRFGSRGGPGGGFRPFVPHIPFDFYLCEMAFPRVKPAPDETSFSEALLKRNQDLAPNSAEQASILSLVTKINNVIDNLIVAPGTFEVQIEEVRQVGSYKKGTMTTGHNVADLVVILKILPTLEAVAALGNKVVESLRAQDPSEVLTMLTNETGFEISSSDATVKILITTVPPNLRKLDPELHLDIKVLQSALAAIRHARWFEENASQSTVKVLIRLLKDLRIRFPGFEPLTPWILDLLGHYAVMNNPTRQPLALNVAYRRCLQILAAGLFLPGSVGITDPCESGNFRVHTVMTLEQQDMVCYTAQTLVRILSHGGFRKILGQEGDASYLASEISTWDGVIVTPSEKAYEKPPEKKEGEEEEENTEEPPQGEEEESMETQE

No constants are given. Whether binding was seen depends on the method and setting. In cells and extracts the contact can be indirect. Some binding calls cover weakened binding; strength is not graded here.

The experiment deals with T1, NONO (human (endogenous in RKO, Colo320, SW620, LS174T, DLD-1)) (UniProt Q15233).
T1 sequence: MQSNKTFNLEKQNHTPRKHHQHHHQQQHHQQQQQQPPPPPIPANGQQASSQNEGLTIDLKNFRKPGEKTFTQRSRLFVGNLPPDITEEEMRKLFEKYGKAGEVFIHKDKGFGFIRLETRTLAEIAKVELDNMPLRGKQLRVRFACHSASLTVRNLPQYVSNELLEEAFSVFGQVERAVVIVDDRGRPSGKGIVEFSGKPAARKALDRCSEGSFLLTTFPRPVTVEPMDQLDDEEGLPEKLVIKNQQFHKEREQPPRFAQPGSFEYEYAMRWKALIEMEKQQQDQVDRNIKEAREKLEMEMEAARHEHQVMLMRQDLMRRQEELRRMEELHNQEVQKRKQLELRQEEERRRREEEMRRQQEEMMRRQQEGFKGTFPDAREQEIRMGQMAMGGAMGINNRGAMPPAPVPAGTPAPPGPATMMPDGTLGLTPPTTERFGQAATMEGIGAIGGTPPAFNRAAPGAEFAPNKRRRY
As to the kind of experiment: co-IP; nuclear lysate (1 mg) of RKO and Colo320 cells, antibody overnight at 4°, Protein G and A DynaBeads, washes with 50 mM Tris-HCl pH 7.4, 200 mM NaCl, 2 mM EDTA, 1% Triton X-100, immunoblot; also in BCL9 knockout RKO clones and in RKO cells treated 2 h with vehicle or verapamil. For orientation: A western blot detects proteins with antibodies after separation by electrophoresis.

Consider ILF2 (from UniProt Q12905 1-390), for which the binding entry is reported as “binds”.
